Measured values from patent US20140315834A1 (Medicon Pharmaceuticals, Inc., priority 2012, published 2014).
Some results were stated once for a whole list of compounds, not compound by compound.

Test system: platelets (human platelet-rich plasma)
Test: Thromboelastography, maximum signal amplitude (MA)
Type: cell-based
Conditions: concentrations between 0.25 and 1.2 mM

phospho-aspirin glycerol amide [Compound 194]
inhibition of platelet aggregation: 30-80%
